# Primary screen of a compound library

Measurements from “University of Dundee, Small-Polar-MMV Screening Library” (2021), ChEMBL document CHEMBL3988442.

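Phenotypic screen: M. tuberculosis growth, cholesterol and DPPC medium, 4 days; the read-out is not stated. Compounds at 500 µM. Direction is inferred from retests: higher values go with more growth inhibition. Size under these conditions: about 18,000 compounds, about 900 of them at 50% or above in at least one test.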

Values are the deposited “Percent Effect”, in %.
How 0% and 100% were set is not recorded. Most values in the screen are low, and negative values occur.
This is an unselected part of the compounds tested.

structure: OC1(c2scnc2Br)CCNCC1
percent effect: -18.34

structure: COC(=O)C1CCN(C(=O)Cc2cccc(F)c2)CC1
percent effect: 41.25

structure: CCC(=O)NCc1ccc(-n2cncn2)nc1
percent effect: -2.678

structure: c1csc(CNCCCn2ccnc2)c1
percent effect: 1.928

structure: CN1CCOC[C@H]2CCN(C(=O)c3ccco3)C[C@H]21
percent effect: 10.97

structure: CC(N)c1ccc(N2CCNC2=O)cc1 (configuration not stated)
percent effect: 39.6

structure: CCOc1ccccc1OC1CCN(CC(N)=O)CC1
percent effect: -22.37

structure: COCCNC(C)C(N)=O (configuration not stated)
percent effect: -4.603

structure: CN(C)c1ncc(CN2CCC(O)(CO)C2)cn1 (configuration not stated)
percent effect: 6.798

structure: Cc1nccn1CC1CCN(C(C)C(=O)N(C)C)CC1 (configuration not stated)
percent effect: -7.623

structure: CCS(=O)(=O)N1CCN(c2ccc(OC)cc2)C(=O)C1
percent effect: 3.639

structure: Cc1ccc2nc(COC(=O)C3CCC3)cc(=O)n2c1
percent effect: 0.1228

structure: CCSc1cc(Cl)ccc1C(=O)N[C@H](C)C(=O)NC
percent effect: 8.832

structure: CCS(=O)(=O)N(C)C(=O)CCc1c[nH]c2ccccc12
percent effect: 87.36

structure: CCN(C(=O)CN1CCNC(=O)C1)c1ccc(F)cc1
percent effect: 16.71

structure: Cc1ccc(C2CCCN2CCS(C)(=O)=O)s1 (configuration not stated)
percent effect: 38.84

structure: Cn1cc(NC(=O)C2CC(=O)Nc3ccccc32)cn1 (configuration not stated)
percent effect: -17.68

structure: CCC[C@H](N)C(=O)NCCc1nc(C)cc(=O)[nH]1
percent effect: 0.08247

structure: OCC1CCN(Cc2cc(Cl)c3c(c2)OCCO3)CC1
percent effect: 24.26

structure: FC(F)(F)COC1CCCNC1 (configuration not stated)
percent effect: -11.18

structure: CCOCCC(=O)NCc1c(C)ncc2c1CCNC2
percent effect: -22.52

structure: OCCC1CCN(Cc2cccnc2)C1 (configuration not stated)
percent effect: -12.88

structure: CC(N)C(=O)Nc1ccc(-n2nccn2)cc1 (configuration not stated)
percent effect: 23.39

structure: CC(C)COCC(C)NC(=O)c1ccc2nncn2c1 (configuration not stated)
percent effect: 4.825

structure: COCN1C(=O)c2ccc(F)cc2S1(=O)=O
percent effect: 8.642

structure: CSc1ccccc1CN1CCN(CCC(N)=O)CC1
percent effect: 12.09

structure: COCCNS(=O)(=O)c1cn[nH]c1C
percent effect: 3.958

structure: NCC1CCN(Cc2cc(=O)c3cc(F)ccc3[nH]2)C1 (configuration not stated)
percent effect: 37.28

structure: CCOCCOc1cccc(NC(=O)NCCN)c1
percent effect: 10.03

structure: O=C(CCN1CCC(CO)CC1)Nc1ccc(Cl)cc1
percent effect: 24.44

structure: Nc1ccc(CN2CCN(CC(F)(F)F)CC2)cn1
percent effect: 0.7553

structure: CCc1cccc(NC(=O)CCNC(C)=O)c1
percent effect: 4.157

structure: CCNCc1nccs1
percent effect: 7.714

structure: CCC(CO)N1CCN(C(=O)c2cncc(F)c2)CC1 (configuration not stated)
percent effect: 7.27

structure: CC(=O)Nc1ccc(N2CCCCC2)nc1
percent effect: 19.72

structure: CCOC(=O)N1CCC(NCc2ccncc2)CC1
percent effect: 16.26

structure: CC(Cn1cncn1)NC(=O)CCOc1ccccc1 (configuration not stated)
percent effect: 24.5

structure: Cc1noc(CN(C)Cc2cncn2C(C)C)n1
percent effect: -5.989

structure: O=C(CCN1CCC(O)CC1)N1CCc2ccccc21
percent effect: -7.046

structure: CC(C)C(=O)Nc1ccc(N2CCOCC2)nc1
percent effect: -1.243

structure: Cc1cc(CN(C)C(=O)C2CCCCCN2C)no1 (configuration not stated)
percent effect: -1.506

structure: CCc1ncc(C(=O)NCCNC(=O)c2ccoc2)s1
percent effect: -11.02

structure: CC1CN(C)CCN1CC(=O)NCc1ccco1 (configuration not stated)
percent effect: -18.22

structure: CC(C)c1cc(C(=O)N2CCSCC2)nc2ncnn12
percent effect: -1.101

structure: Cc1nc(CN2CCC(CN)CC2)cs1
percent effect: -6.987

structure: Cc1ccccc1N(C(=O)C(C)C)C1C=CS(=O)(=O)C1 (configuration not stated)
percent effect: 0.5699

structure: COCCn1c(SCC(=O)NC2CC2)nc(C)c1C
percent effect: 8.577

structure: CCC1CN(C2=NS(=O)(=O)c3ccccc32)CCO1 (configuration not stated)
percent effect: 8.337

structure: CN1C(=O)c2ccc(S(N)(=O)=O)cc2C1=O
percent effect: -13.2

structure: COCC1(CN)CC1
percent effect: -4.386

5 of the entries, repeated:

Cc1nc(CN2CCC(CN)CC2)cs1 read -6.987%.
CC(Cn1cncn1)NC(=O)CCOc1ccccc1 (configuration not stated) read 24.5%.
CCSc1cc(Cl)ccc1C(=O)N[C@H](C)C(=O)NC read 8.832%.
CSc1ccccc1CN1CCN(CCC(N)=O)CC1 read 12.09%.
COC(=O)C1CCN(C(=O)Cc2cccc(F)c2)CC1 read 41.25%.